{"source": "the supplement of paper PMC10338343", "note": "± gives the standard deviation. Only a part is listed here, and it is no random draw. Many of these values have a large error.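 Note: 1 nM active piRISC with 0.1 nM target library at 33 °C single turnover.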"}
{"system": "MILI (PIWIL2) piRISC loaded with piRNA #2 (26 nt)", "assay": "pre-steady-state target cleavage rate (min^-1); MIWI and MILI are mouse PIWI proteins and EfPiwi is from a freshwater sponge; tags in brackets are library labels; higher = faster piRNA-guided slicing of the target", "settings": "guide: piRNA #2 5'p-UUAGGUAACCCAGUAGAUCCAGAGGA; auxiliary factor: 500 nM mouse GTSF1", "method_in_brief": "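In this Cleave-'n-Seq assay, uncleaved targets were sequenced and normalised to depth and to weakly complementary targets. They came from a transcribed, DNA-blocked target RNA library […] mixed with 1 nM active affinity-purified piRISC carrying one synthetic guide, with or without 500 nM GTSF1 partner protein, in HEPES–potassium acetate buffer at 33 °C for 0–8 or 0–960 min. After three trials were pooled and k3 was capped at 0.0001 min^-1, the pre-steady-state cleavage rate was obtained from a burst-and-steady-state fit.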"}
{"sequence": "CUUAAGGAGAGGUUCUACUGGGUAACCUAA", "pre-steady-state target cleavage rate": "0.00387 ± 0.0047"}
{"sequence": "CUUAAGGUCUGCAUCUACUGGCUUACCUAA", "pre-steady-state target cleavage rate": "0.000822 ± 0.015"}
{"sequence": "CUUAAGGAGACCUUCUUCUGGGUAACCUAA", "pre-steady-state target cleavage rate": "0.000662 ± 0.011"}
{"sequence": "CUUAAGGAGACCUUCUACUGCGUUACGUAA", "pre-steady-state target cleavage rate": "0.000901 ± 0.012"}
{"sequence": "CUUAAGGAGACGAUCUAGUGGGUUACCAAA", "pre-steady-state target cleavage rate": "0.000859 ± 0.0076"}
{"sequence": "CUUAAGGAGACCUACUUGAGGGUUACCUAA", "pre-steady-state target cleavage rate": "0.00067 ± 0.013"}
{"sequence": "CUUAAGGACUGGAUCUACACCGUUACCUAA", "pre-steady-state target cleavage rate": "0.00215 ± 0.0075"}
{"sequence": "CUUAAGCUCUGGAUCUACUGAGGUUACCUAA", "pre-steady-state target cleavage rate": "0.00136 ± 0.007"}
{"sequence": "CUUAAGGAGAGGAUCUACUGGGUAUCCUAA", "pre-steady-state target cleavage rate": "0.000984 ± 0.01"}
{"sequence": "CUUAUCGUCUGGAUCUACUGGCUUACCUAA", "pre-steady-state target cleavage rate": "0.000366 ± 0.027"}
{"sequence": "CUUAAGGAGUGGAUCUAUGGGUUACCUAA", "pre-steady-state target cleavage rate": "0.00216 ± 0.0035"}
{"sequence": "CUUAAGGAGACGAAGUACUGGGUUACCUAA", "pre-steady-state target cleavage rate": "0.000256 ± 0.01"}
{"sequence": "CUUAAGGAGACCUAGAUCUGGGAUUACCUAA", "pre-steady-state target cleavage rate": "0.000349 ± 0.02"}
{"sequence": "CUUAAGGAGACCAUCUACUGGGUAACCAAA", "pre-steady-state target cleavage rate": "0.000281 ± 0.017"}
{"sequence": "CUUAACCUCUGGAUCUACUGGGAUACCUUA", "pre-steady-state target cleavage rate": "0.0634 ± 0.023"}
{"sequence": "CUUAAGGAGACCUAGAUGACGGUCUACCUAA", "pre-steady-state target cleavage rate": "0.000449 ± 0.023"}
{"sequence": "CUUAAGGAGACCACCUACUGGGUUACCUAA", "pre-steady-state target cleavage rate": "0.000767 ± 0.012"}
{"sequence": "CUUAAGGAGACCUAGAUGAGUGUUACCUAA", "pre-steady-state target cleavage rate": "0.000264 ± 0.016"}
{"sequence": "CUUAAGGAGUCGAUCUACUGGGUUACCUUA", "pre-steady-state target cleavage rate": "0.00201 ± 0.0069"}
{"sequence": "CUUAACCUCUGGACCUACUGGGUUACCUAA", "pre-steady-state target cleavage rate": "0.0796 ± 0.023"}
{"sequence": "CUUAAGGAGACCUAGUACAGGGUUAGCUAA", "pre-steady-state target cleavage rate": "0.000109 ± 0.07"}
{"sequence": "CUUAAGGAGACGAUCUACCUGGGUUACCUAA", "pre-steady-state target cleavage rate": "0.000758 ± 0.014"}
{"sequence": "CUUAAGGAGUGGAUCUACUGGGUUACGAAA", "pre-steady-state target cleavage rate": "0.00127 ± 0.0097"}
{"sequence": "CUUAAGGAGAGGAUCUACUUGGGUUACCUAA", "pre-steady-state target cleavage rate": "0.00122 ± 0.0062"}
{"sequence": "CUUAAGGAGACCUUCUACUGGGGUUACCUAA", "pre-steady-state target cleavage rate": "0.000567 ± 0.017"}
{"sequence": "CUUAAGGAGAGGAUACUACUGGGUUACCUAA", "pre-steady-state target cleavage rate": "0.00123 ± 0.0062"}
{"sequence": "CUUAAGGAGUGCAUCAACUGGGUUACCUAA", "pre-steady-state target cleavage rate": "0.000547 ± 0.024"}
{"sequence": "CUUAAGGAGACCUUGUACUGGGUUACCUAA", "pre-steady-state target cleavage rate": "0.000511 ± 0.015"}
{"sequence": "CUUAAGGAGAGGAUGUACUGGGUUACCUUA", "pre-steady-state target cleavage rate": "0.00254 ± 0.0084"}
{"sequence": "CUUAAGGACUGGAUGUACUGGGUUACCAAA", "pre-steady-state target cleavage rate": "0.00605 ± 0.0089"}
{"sequence": "CUUAAGGAGACCUUUACUGGGUUACCUAA", "pre-steady-state target cleavage rate": "0.000628 ± 0.018"}
{"sequence": "CUUAAGGAGACGAUCUACUGGGUUAGCCUAA", "pre-steady-state target cleavage rate": "0.00184 ± 0.0078"}
{"sequence": "CUUAAGGAGACCAUCAACUGGGUUACCUAA", "pre-steady-state target cleavage rate": "0.000798 ± 0.0094"}
{"sequence": "CUUAAGGACUGGUACUACUGGGUUACCUAA", "pre-steady-state target cleavage rate": "0.000773 ± 0.039"}
{"sequence": "CUUAAGGAGACCUAGAUCUGGGUUACGUAA", "pre-steady-state target cleavage rate": "0.000263 ± 0.024"}
{"sequence": "CUUAAGCUCUGGAUCUACUCGGUUACGUAA", "pre-steady-state target cleavage rate": "0.000454 ± 0.02"}
{"sequence": "CUUAAGGAGAGGAUCUACUGGCUUUCCUAA", "pre-steady-state target cleavage rate": "0.000158 ± 0.042"}
{"sequence": "CUUAAGGAGACGAUCUUCUGGGUUACCUAA", "pre-steady-state target cleavage rate": "0.00291 ± 0.003"}
{"sequence": "CUUAAGGAGACCUACUACUGGGUUCCCUAA", "pre-steady-state target cleavage rate": "0.000275 ± 0.023"}
{"sequence": "CUUAAGCACUGGAUCUACUGGCUUACCUAA", "pre-steady-state target cleavage rate": "0.00121 ± 0.0076"}
{"sequence": "CUUAAGCUCAGGAUCUACUGGCUUACCUAA", "pre-steady-state target cleavage rate": "0.00106 ± 0.015"}
{"sequence": "CUUAAGGUCUGGAUCUACUGGGAUACCAAA", "pre-steady-state target cleavage rate": "0.000905 ± 0.011"}
{"sequence": "CUUAAGGAGAGGUUCUAGUGGGUUACCUAA", "pre-steady-state target cleavage rate": "0.00235 ± 0.0045"}
{"sequence": "CUUAAGGAGACCUAGAUCUGGGUUACCCAA", "pre-steady-state target cleavage rate": "0.000403 ± 0.025"}
{"sequence": "CUUAAGGAGAGGAACUUCUGGGUUACCUAA", "pre-steady-state target cleavage rate": "0.000314 ± 0.022"}
{"sequence": "CUUAAGGAGACCUUCUACUGGCGUUACCUAA", "pre-steady-state target cleavage rate": "0.000165 ± 0.038"}
{"sequence": "CUUAAGGAGACCAUCUACUGUGGUUACCUAA", "pre-steady-state target cleavage rate": "0.000369 ± 0.027"}
{"sequence": "CUUAAGGAGACGUACUACUGGGUUACCUAA", "pre-steady-state target cleavage rate": "0.00031 ± 0.015"}
{"sequence": "CUUAAGGACUCGAUCUACUGGGUUACGUAA", "pre-steady-state target cleavage rate": "0.00124 ± 0.0096"}
{"sequence": "CUUAAGGAGACGGUCUACUGGGUUACCUAA", "pre-steady-state target cleavage rate": "0.00053 ± 0.012"}
{"sequence": "CUUAAGGAGAGGAUCUACUGGGAUUCCUAA", "pre-steady-state target cleavage rate": "0.000211 ± 0.024"}
{"sequence": "CUUAAGCUCUGGAUCUUACUGGGUUACCUAA", "pre-steady-state target cleavage rate": "0.000797 ± 0.0086"}
{"sequence": "CUUAAGGAGAGGAUCUACUGGGUUGACCUAA", "pre-steady-state target cleavage rate": "0.000665 ± 0.016"}
{"sequence": "CUUAAGGAGACCUUCUACUGGGUGUACCUAA", "pre-steady-state target cleavage rate": "0.000713 ± 0.01"}
{"sequence": "CUUAAGGAGACGAUCUACUGGGUUAACCUAA", "pre-steady-state target cleavage rate": "0.00242 ± 0.0045"}
{"sequence": "CUUAAGCUCUGGAUCUACACCGUUACCUAA", "pre-steady-state target cleavage rate": "0.00171 ± 0.0074"}
{"sequence": "CUUAAGGAGUGGAUCUACUGGAGUUACCUAA", "pre-steady-state target cleavage rate": "0.000542 ± 0.012"}
{"sequence": "CUUAAGGAGACCUAGUUCUGGGUUAGCUAA", "pre-steady-state target cleavage rate": "0.000309 ± 0.035"}
{"sequence": "CUUAAGGAGACCAUCUACAUGGGUUACCUAA", "pre-steady-state target cleavage rate": "0.000463 ± 0.021"}
{"sequence": "CUUAAGGUCUGGAUCUACUGGGCUACCUAA", "pre-steady-state target cleavage rate": "0.00198 ± 0.0061"}
{"sequence": "CUUAAGGAGAGGAUCUACGGGUUACCUAA", "pre-steady-state target cleavage rate": "0.000812 ± 0.01"}
{"sequence": "CUUAAGGACUGGAACUACUGGGUUUCCUAA", "pre-steady-state target cleavage rate": "0.00042 ± 0.04"}
{"sequence": "CUUAAGGUCUGGAUGUACUGGGUUAGCUAA", "pre-steady-state target cleavage rate": "0.00595 ± 0.0085"}
{"sequence": "CUUAAGCUCUGGAUCAUGUGGGUUACCUAA", "pre-steady-state target cleavage rate": "0.00248 ± 0.0047"}
{"sequence": "CUUAAGGAGUGGAUCUACUGGCUUACCUAA", "pre-steady-state target cleavage rate": "0.000228 ± 0.036"}
{"sequence": "CUUAAGGAGACCAUCUCCUGGGUUACCUAA", "pre-steady-state target cleavage rate": "0.0019 ± 0.0091"}
{"sequence": "CUUAAGGACUGGAUCUACUGGGUUACCAA", "pre-steady-state target cleavage rate": "0.00347 ± 0.0078"}
{"sequence": "CUUAUCCUCUGGUACUACUGGGUUACCUAA", "pre-steady-state target cleavage rate": "0.754 ± 0.23"}
{"sequence": "CUUAAGGAGUGGAUCUACUGGGCUUACCUAA", "pre-steady-state target cleavage rate": "0.000323 ± 0.046"}
{"sequence": "CUUAAGGAGACAAUCUACUGGGUUACCUAA", "pre-steady-state target cleavage rate": "0.00179 ± 0.0045"}
{"sequence": "CUUAAGGAGACCUACUACAGGGAUACCUAA", "pre-steady-state target cleavage rate": "0.000189 ± 0.035"}
